Measurements taken from article PMC10290057.
These are yes or no findings as the source states them, for the method shown. Binding seen in cells or lysates may run through a third protein. Some binding calls cover weakened binding; strength is not graded here. Tags and fused reporters may be left off the sequences shown. One block for each molecule: values may come before it.

Chains of the proteins cited; added tags and fusions are not shown.
UniProt P11387: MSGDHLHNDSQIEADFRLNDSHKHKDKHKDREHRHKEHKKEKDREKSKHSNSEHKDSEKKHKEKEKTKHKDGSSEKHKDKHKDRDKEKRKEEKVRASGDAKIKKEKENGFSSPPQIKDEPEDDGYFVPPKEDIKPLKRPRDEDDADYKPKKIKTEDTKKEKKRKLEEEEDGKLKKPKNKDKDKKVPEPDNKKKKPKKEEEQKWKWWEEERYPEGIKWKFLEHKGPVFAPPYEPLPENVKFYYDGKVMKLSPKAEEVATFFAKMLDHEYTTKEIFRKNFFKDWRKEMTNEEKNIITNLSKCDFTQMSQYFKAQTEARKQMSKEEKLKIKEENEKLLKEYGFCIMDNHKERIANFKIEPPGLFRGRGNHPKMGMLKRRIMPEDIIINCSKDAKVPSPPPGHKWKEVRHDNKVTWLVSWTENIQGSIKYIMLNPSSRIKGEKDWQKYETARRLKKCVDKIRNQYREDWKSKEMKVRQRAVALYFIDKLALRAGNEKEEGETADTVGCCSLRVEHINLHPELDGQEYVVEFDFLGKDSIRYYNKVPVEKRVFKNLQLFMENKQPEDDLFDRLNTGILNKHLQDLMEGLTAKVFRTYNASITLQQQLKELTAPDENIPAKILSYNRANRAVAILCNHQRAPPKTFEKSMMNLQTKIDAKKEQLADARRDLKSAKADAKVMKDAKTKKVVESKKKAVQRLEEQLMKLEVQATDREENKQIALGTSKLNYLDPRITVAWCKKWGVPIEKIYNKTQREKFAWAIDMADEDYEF

Assays:
[1] = biological target: T1, DCAF13-FLAG (DDB1 and Cullin Associated Factor 13), wild type (human) (UniProt Q9NV06); test: co-IP; FLAG-IP (anti-FLAG M2, Protein A/G PLUS-agarose) from benzonase-treated lysates of HCT116 cells transfected with DCAF13-FLAG constructs, CPT (20 µM, 30 min) in presence of BTZ (1 µM); washed with RIPA buffer; immunoblot
T1 sequence: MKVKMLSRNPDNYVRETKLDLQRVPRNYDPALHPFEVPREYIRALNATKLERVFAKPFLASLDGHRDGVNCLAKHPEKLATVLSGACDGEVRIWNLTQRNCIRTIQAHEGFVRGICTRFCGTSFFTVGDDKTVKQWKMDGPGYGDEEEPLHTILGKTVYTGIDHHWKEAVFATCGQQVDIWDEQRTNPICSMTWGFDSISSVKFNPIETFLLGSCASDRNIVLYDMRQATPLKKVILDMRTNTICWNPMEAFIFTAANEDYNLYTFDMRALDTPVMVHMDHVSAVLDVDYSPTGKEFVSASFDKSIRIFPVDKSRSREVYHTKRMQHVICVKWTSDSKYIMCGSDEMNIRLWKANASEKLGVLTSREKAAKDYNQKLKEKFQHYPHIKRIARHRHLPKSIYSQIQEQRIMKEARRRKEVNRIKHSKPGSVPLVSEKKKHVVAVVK

[2] = biological target: N-terminally 6×His-tagged TOP1 (topoisomerase I), full length (human) (UniProt P11387); test: pull-down; His-tag pull-down from lysates of HCT116 cells expressing 6×His-TOP1 constructs and DCAF13-FLAG; lysate in IP lysis buffer, sonicated, benzonase-treated, then Ni-NTA-agarose overnight at 4 °C in Buffer A (6 M guanidine-HCl, 0.1 M Na2HPO4/NaH2PO4, 10 mM imidazole pH 8.0); immunoblot; cells treated with DMSO or CPT (20 µM, 30 min) ± APH (10 µM), or CPT with BTZ (1 µM)
[3] = biological target: N-terminally 6×His-tagged TOP1 (topoisomerase I), full length (human) (UniProt P11387); test: proximity ligation; Duolink PLA in fixed HCT116 cells overexpressing His-TOP1 and DCAF13-FLAG, anti-His and anti-FLAG antibodies; DMSO or CPT (20 µM, 30 min)

binding [1]: binds
Molecule: TOP1, endogenous (co-precipitated with DCAF13-FLAG constructs) (from UniProt P11387 1-765) (enzyme)

binding [2]: binds
binding [3]: binds
B1: DCAF13-FLAG (DDB1 and Cullin Associated Factor 13), wild type (protein, UniProt Q9NV06 1-445)
chain: T1 sequence
